Article PMC9677118

Protein sequences, listed by entry. Tags and fused reporters are not part of them. Lines headed by an entry give the natural chain unless they say otherwise; changes in a name come on top.
UniProt P48740: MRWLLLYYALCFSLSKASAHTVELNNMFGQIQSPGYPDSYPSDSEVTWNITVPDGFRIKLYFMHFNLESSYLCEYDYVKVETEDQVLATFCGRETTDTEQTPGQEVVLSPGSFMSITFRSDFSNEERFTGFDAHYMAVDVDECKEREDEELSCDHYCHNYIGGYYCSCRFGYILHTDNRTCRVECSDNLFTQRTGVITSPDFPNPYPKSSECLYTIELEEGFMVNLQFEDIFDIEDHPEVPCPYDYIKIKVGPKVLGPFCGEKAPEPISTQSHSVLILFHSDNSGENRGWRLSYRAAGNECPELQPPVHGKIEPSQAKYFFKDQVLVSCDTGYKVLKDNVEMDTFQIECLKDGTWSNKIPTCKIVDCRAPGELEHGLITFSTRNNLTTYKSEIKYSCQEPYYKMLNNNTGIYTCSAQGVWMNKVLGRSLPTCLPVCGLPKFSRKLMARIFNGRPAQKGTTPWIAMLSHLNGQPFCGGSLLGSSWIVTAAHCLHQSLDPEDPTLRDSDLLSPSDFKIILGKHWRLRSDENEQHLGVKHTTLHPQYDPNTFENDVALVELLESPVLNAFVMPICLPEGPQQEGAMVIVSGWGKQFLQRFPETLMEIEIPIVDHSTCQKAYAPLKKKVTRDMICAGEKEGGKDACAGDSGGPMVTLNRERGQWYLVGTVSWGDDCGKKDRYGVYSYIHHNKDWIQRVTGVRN

Columns and labels:
[1] = molecular target: recombinantly produced activated MASP-1 (CCP1-CCP2-SP domain) (human) (UniProt P48740); assay: ELISA; sandwich ELISA on purified preformed complexes in buffer (bought C1s/C1-INH complex, in-house MASP-1/C1-INH complex) used as standards; capture by a monoclonal antibody to C1s or MASP-1, detection by an HRP-labelled anti-C1-INH monoclonal antibody; both purified
[2] = molecular target: MBL-associated serine protease 1 (MASP-1) (human (endogenous in human plasma and serum)); assay: ELISA; sandwich ELISA on human citrate, heparin and EDTA plasma and on serum; wells coated with a monoclonal antibody to C1s or MASP-1, bound C1-INH detected with an HRP-labelled monoclonal antibody; serum also activated with zymosan, or on IgM- or mannan-coated wells, with or without EDTA
[3] = molecular target: recombinantly produced activated MASP-1 (CCP1-CCP2-SP domain) (human) (UniProt P48740); assay: SDS-PAGE of the covalent complex; activated MASP-1 (CCP1-CCP2-SP) incubated in a 1:1 molar ratio with ultra-pure C1-INH for 2 h at 37°C in PBS; complex formation checked by SDS-PAGE; both purified

Measured: binding

B1: C1 esterase inhibitor (C1-INH) (protein, UniProt P05155 23-500)
chain: NPNATSSSSQDPESLQDRGEGKVATTVISKMLFVEPILEVSSLPTTNSTTNSATKITANTTDEPTTQPTTEPTTQPTIQPTQPTTQLPTDSPTQPTTGSFCPGPVTLCSDLESHSTEAVLGDALVDFSLKLYHAFSAMKKVETNMAFSPFSIASLLTQVLLGAGENTKTNLESILSYPKDFTCVHQALKGFTTKGVTSVSQIFHSPDLAIRDTFVNASRTLYSSSPRVLSNNSDANLELINTWVAKNTNNKISRLLDSLPSDTRLVLLNAIYLSAKWKTTFDPKKTRMEPFHFKNSVIKVPMMNSKKYPVAHFIDQTLKAKVGQLQLSHNLSLVILVPQNLKHRLEDMEQALSPSVFKAIMEKLEMSKFQPTLLTLPRIKVTTSQDMLSIMEKLEFFDFSYDLNLCGLTEDPDLQVSAMQHQTVLELTETGVEAAAASAISVARTLLVFEVQQPFLFVLWDQQHKFPVFMGRVYDPRA
binds: all assays above

No constants are given. Whether binding was seen depends on the method and setting. Binding calls can cover weak binding; strength is not graded here.
